Experimental data from paper PMC3116825.

Target: Polymerized microtubules
Test: co-sedimentation; microtubule pelleting assay: polymerized microtubules incubated with lysates of NIH/3T3 cells overexpressing the V5-tagged proteins, centrifuged at 100 000 x g; control samples without microtubules; only the target purified

- binding: binds
B1: Full-length V5-tagged human DCDC2 (protein, UniProt Q9UHG0 1-476)
chain: MSGSSARSSHLSQPVVKSVLVYRNGDPFYAGRRVVIHEKKVSSFEVFLKEVTGGVQAPFGAVRNIYTPRTGHRIRKLDQIQSGGNYVAGGQEAFKKLNYLDIGEIKKRPMEVVNTEVKPVIHSRINVSARFRKPLQEPCTIFLIANGDLINPASRLLIPRKTLNQWDHVLQMVTEKITLRSGAVHRLYTLEGKLVESGAELENGQFYVAVGRDKFKKLPYSELLFDKSTMRRPFGQKASSLPPIVGSRKSKGSGNDRHSKSTVGSSDNSSPQPLKRKGKKEDVNSEKLTKLKQNVKLKNSQETIPNSDEGIFKAGAERSETRGAAEVQEDEDTQVEVPVDQRPAEIVDEEEDGEKANKDAEQKEDFSGMNGDLEEEGGREATDAPEQVEEILDHSEQQARPARVNGGTDEENGEELQQVNNELQLVLDKERKSQGAGSGQDEADVDPQRPPRPEVKITSPEENENNQQNKDYAAVA

Results are given in words; binding and its absence hold for the method and conditions named. Binding seen in cells or lysates may run through a third protein. A result given as binding can be weak or reduced; the word gives no strength. Tags and fused reporters may be left off the sequences shown.
